Data published in article PMC11300639.

The chains behind the UniProt entries cited, without tags or fusion partners.
UniProt Q9BY78: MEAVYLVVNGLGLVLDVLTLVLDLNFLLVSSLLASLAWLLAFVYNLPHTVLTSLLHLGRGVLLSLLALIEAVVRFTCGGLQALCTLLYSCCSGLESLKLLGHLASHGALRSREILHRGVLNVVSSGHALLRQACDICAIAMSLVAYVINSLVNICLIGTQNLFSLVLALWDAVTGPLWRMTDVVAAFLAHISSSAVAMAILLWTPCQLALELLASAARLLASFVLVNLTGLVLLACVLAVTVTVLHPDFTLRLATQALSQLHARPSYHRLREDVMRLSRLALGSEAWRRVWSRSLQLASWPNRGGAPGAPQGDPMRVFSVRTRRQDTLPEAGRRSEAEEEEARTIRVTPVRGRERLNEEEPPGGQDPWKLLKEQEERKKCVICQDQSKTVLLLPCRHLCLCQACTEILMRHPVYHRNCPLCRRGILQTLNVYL

Biological target: T1, TSC1 (human (endogenous in 786-O and A498)) (UniProt Q92574)
T1 sequence: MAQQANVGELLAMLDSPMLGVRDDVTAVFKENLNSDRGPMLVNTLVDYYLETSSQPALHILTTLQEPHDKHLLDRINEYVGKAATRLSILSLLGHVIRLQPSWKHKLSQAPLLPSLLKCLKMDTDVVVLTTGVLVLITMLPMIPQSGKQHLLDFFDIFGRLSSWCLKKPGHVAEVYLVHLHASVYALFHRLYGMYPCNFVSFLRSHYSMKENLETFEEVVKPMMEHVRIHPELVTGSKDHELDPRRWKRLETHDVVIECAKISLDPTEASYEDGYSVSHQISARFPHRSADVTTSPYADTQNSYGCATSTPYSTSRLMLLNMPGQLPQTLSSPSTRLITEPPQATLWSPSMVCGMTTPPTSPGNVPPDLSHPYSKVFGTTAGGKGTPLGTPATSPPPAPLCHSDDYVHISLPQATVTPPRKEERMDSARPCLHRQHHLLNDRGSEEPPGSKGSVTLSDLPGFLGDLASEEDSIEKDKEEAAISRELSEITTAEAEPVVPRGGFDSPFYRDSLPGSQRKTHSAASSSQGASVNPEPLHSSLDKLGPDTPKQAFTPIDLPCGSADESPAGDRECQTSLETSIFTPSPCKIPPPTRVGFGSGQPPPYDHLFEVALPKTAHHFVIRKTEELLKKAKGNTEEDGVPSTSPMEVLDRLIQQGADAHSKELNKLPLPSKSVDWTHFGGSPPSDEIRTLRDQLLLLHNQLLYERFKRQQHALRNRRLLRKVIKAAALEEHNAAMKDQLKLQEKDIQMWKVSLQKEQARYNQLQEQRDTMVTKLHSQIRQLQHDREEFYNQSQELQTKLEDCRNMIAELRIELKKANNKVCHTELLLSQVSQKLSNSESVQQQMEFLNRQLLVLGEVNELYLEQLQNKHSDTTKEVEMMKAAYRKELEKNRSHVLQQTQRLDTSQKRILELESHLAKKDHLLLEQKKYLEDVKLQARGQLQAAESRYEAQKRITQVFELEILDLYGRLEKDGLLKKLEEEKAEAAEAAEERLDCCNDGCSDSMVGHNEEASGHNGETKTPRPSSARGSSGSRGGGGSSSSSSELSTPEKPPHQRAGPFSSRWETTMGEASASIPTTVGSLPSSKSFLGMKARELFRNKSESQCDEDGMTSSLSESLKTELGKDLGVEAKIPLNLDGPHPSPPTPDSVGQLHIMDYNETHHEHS
Assay: affinity purification with mass spectrometry; 786-O cells treated with or without Palbociclib (5 uM) for 24 h; immunoprecipitation with IgG or TSC1 antibodies, mass spectrometry; Z score

RING finger protein 26 (RNF26) (from UniProt Q9BY78 1-433)
binding: binds

No constants are given. Whether binding was seen depends on the method and setting. Binding seen in cells or lysates may run through a third protein. These calls come from enrichment with a bait or labelling near it, and not all partners need be listed.
